Data from patent US8269005B2 (Sunovion Pharmaceuticals Inc., priority 2007, dated 2012).

Test: Open-label human taste assessment (Flavor Profile panel), bitterness
Type: in vivo
Conditions: 0.01 mg/5 mL, scale 0-3, listed as salt

With CN1CCN(C(=O)O[C@H]2c3nccnc3C(=O)N2c2ccc(Cl)cn2)CC1 [L-malate, (S)-Zopiclone L-Malate] the “Human taste bitterness intensity” value (t = 15 minutes aftertaste) was 0.8 and the “Human taste bitterness intensity” value (t = 25 minutes aftertaste) was 0.2.
